US20200248178A1, “COMBINATION THERAPIES FOR TREATING MUSCULAR DYSTROPHY” (Sarepta Therapeutics, Inc., priority 2017, published 2020)
Entries after “also recorded” stand apart in the source; their conditions may differ. At least one compound was matched to its structure with a doubt left.

How the values were obtained:
Mdx mice [1] = test: Mdx mice quadriceps histology (H&E, picrosirius red): inflammation and fibrosis; assay type: in vivo; conditions: 4 weeks, M23D PMO 40 mg/kg IV weekly, CAT-1004 1% in diet
dystrophin exon 23 = test: Mdx mice exon 23 skipping by RT-PCR; assay type: in vivo; conditions: quadriceps, diaphragm, heart, 4 weeks
dystrophin = test: Mdx mice dystrophin protein by Western blot; assay type: in vivo; conditions: quadriceps, diaphragm, heart, 4 weeks
NF-κB = conditions: cited from earlier work
Mdx mice [2] = conditions: cited from earlier work
NF-κB pathways = conditions: cited from earlier work
cNF-κB = conditions: cited from earlier work

Compound: CC/C=C\C/C=C\C/C=C\C/C=C\C/C=C\C/C=C\CCC(=O)NCCNC(=O)c1ccccc1O [CAT-1004, N-(2-[(4Z,7Z,10Z,13Z,16Z,19Z)-docosa-4,7,10,13,16,19-hexaenamido]ethyl)-2-hydroxybenzamide]
- inflammation and fibrosis in quadriceps (Mdx mice [1]): reduction of inflammation and fibrosis as compared to Mdx mice treated with saline
- exon 23 skipping (dystrophin exon 23): neither exon skipping nor dystrophin production were observed
- dystrophin production (Western blot) (dystrophin): neither exon skipping nor dystrophin production were observed
- phenotype (NF-κB; GRMD dog, long-term treatment): improves the phenotype
- diaphragm function (NF-κB; dog DMD model): improved diaphragm function
- NF-κB activity (p65 binding to DNA, TNF-α secretion) (NF-κB; dog model of DMD): decreases NF-κB activity
- NF-κB p65-dependent inflammatory responses (NF-κB; golden retriever DMD model): significantly inhibit NF-κB p65-dependent inflammatory responses
- exercise endurance (Mdx mice [2]; mdx mice): increased exercise endurance
- inflammation and fibrosis (Mdx mice [2]; mdx mice): reduced inflammation and fibrosis
- muscle degeneration and inflammation (Mdx mice [2]; mdx mice): reduce muscle degeneration and inflammation
- muscle function (Mdx mice [2]; mdx mice): preserve muscle function
- muscle regeneration (Mdx mice [2]; mdx mice): enhance muscle regeneration
- cumulative run distance (Mdx mice [2]; mdx mice, long-term studies): increased cumulative run distance
- phenotype (Mdx mice [2]; mdx mouse, long-term treatment): improves the phenotype
- diaphragm function (Mdx mice [2]; mouse DMD model): improved diaphragm function
- levels of the p65 subunit of NF-κB (NF-κB pathways; healthy adult humans, vs placebo or salicylate and omega-3 DHA as separate molecules): lowers levels of the p65 subunit of NF-κB
- biomarkers of inflammation in whole blood (NF-κB pathways; humans): decrease of biomarkers of inflammation in whole blood
- activated NF-κB pathways (NF-κB pathways; phase I, adults, listed as Edasalonexent): inhibited activated NF-kB pathways; also recorded: inhibited activated NF-κB pathways
- cNF-κB activation in vitro (cNF-κB): inhibit cNF-κB activation in vitro
